PubChem BioAssay AID624297 (National Center for Advancing Translational Sciences (NCATS), 2012)
Hit rate of the full screen: of about 340,000 compounds, about 6,200 (1.8%) were called active. The shares of active, inactive and inconclusive entries below differ from those in the screen. Calls follow the shape of the dose curve; as a rule, active = well fitted activation curve with a large enough effect; inconclusive = small, poorly fitted or top-dose-only effect; inactive = no such curve, though single readings can be large or run the other way. Potencies of inconclusive entries are doubtful fits and often do not repeat.

assay: A quantitative high throughput screen for small molecules that induce DNA re-replication in SW480 colon adenocarcinoma cells.; also: nearly all actives have a fitted effect of over 55% in size; as to re-replication activation: % of control where 0% means no effect; details: Hoechst DNA content imaging, 48 h; re-replication activation: at 46.1 µM (top of the series) unless noted
In short: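 Per well, 250 cells were exposed to pinned compound for 48 hr. Nuclear DNA was visualised with Hoechst (40 min, 37 C) and total object intensity recorded by fluorescence scanning.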
Potency is read from the fitted curve at half-maximal effect.

Structure (SMILES)	Potency	re-replication activation
Cc1ccc(-n2c([O-])nc(-[n+]3ccccc3)c2C=O)cc1	inconclusive: 29.1 µM [activator, single point]	
COc1ccc(OC)c(C2=Nn3c(nnc3-c3ccncc3)SC2)c1	inconclusive: 29.1 µM [activator, single point]	
COc1ccc(OC)c(NC(=S)N2CCN(Cc3ccccc3)CC2)c1	inactive	
c1ccc2c(c1)c1c(c3ccccc32)CN2CCCC2C1 (centres undefined)	active: 18.4 µM	
COc1ccc(C2=CC(=O)N(Nc3ccccc3)C2=O)cc1	active: 4.11 µM	
COc1ccc(/C(C)=N/Nc2nccnc2Cl)cc1	inconclusive: 29.1 µM [activator, single point]	
COc1ccc(OC)c2[nH]c(=O)c(CCNC(=O)c3ccc(Br)o3)cc12	inconclusive: 0.103 µM [activator, full curve, poor fit]	
COc1ccc2ccccc2c1-c1sc(Nc2ccccc2)n[n+]1-c1ccc(F)cc1	inconclusive: 29.1 µM [activator, single point]	
CC(C)C[C@H](NC(=O)c1nc[nH]c1C(=O)N[C@@H](CCCCNC(=O)OC(C)(C)C)C(=O)OC(C)(C)C)C(=O)OC(C)(C)C	inconclusive: 29.1 µM [activator, single point]	
Cc1ccc(S(=O)(=O)N2C[C@@H]3c4ccccc4N(S(=O)(=O)c4ccc(C)cc4)[C@@H]3[C@@H](C)C2CC(=O)c2ccccc2)cc1 (some centres undefined)	inconclusive: 0.103 µM [activator, full curve, poor fit]	
Nc1ccc2nn(-c3ccccc3)nc2c1	active: 14.6 µM	
COC(=O)N/N=C\c1cc(Br)ccc1OCc1ccccc1	inconclusive: 29.1 µM [activator, single point]	
Cc1nc2ccccc2n1-c1nc(-c2ccco2)cc(C(F)(F)F)n1	inconclusive: 3.66 µM [activator, full curve]	
CC1(C)CC(Cc2nc(=S)[nH][nH]2)C(=O)O1 (centres undefined)	inactive	
CC1(c2ccc3ccccc3c2)NC(=O)N(CC(=O)NCC(C)(C)N2CCOCC2)C1=O (centres undefined)	inconclusive: 23.1 µM [activator, partial curve, poor fit]	
Cc1cc(Nc2cccc([N+](=O)[O-])c2)n2c(nc3ccccc32)c1C#N	inconclusive: 3.26 µM [activator, full curve]	
CCOC(=O)C1=C(C)N=C2SC=C(C)N2C1c1ccc(OC)cc1 (centres undefined)	inconclusive: 23.1 µM [activator, single point]	
COc1cc2nncc(SC)c2cc1OC	inconclusive: 29.1 µM [activator, single point]	
COc1ccc(NC(=O)CN2C(=O)NC3(CCCC3)C2=O)cc1Cl	inconclusive: 7.31 µM [activator, partial curve, poor fit]	
CCNc1[nH]c(=O)n(C)c(=O)c1N=O	inconclusive: 29.1 µM [activator, single point]	
CC(C)NC(=O)CCn1c(=S)oc2ccccc21	inactive	
Cn1c(SCC(=O)Nc2cc(C(C)(C)C)nn2-c2ccccc2)nc2ccccc21	inconclusive: 32.6 µM [activator, single point]	
COc1ccc2c(CC(=O)N[C@@H](Cc3ccccc3)C(=O)O)cc(=O)oc2c1	inactive	

Structure (SMILES)	Potency	re-replication activation
C=CCN1C(=O)/C(=C2/Sc3ccc(OC)cc3N2C)SC1=Nc1cccc(O)c1	inconclusive: 1.84 µM [activator, partial curve, poor fit]	
COc1ccc(C2CC(c3ccc(Cl)cc3)=NN2C(C)=O)cc1 (centres undefined)	inactive	
CCOCCCNC(=O)/C(C#N)=C/c1cc(OC)c(O)c([N+](=O)[O-])c1	inconclusive: 25.9 µM [activator, single point]	
CCN(CC)CCNc1ccc(C)c2sc3ccc(O)cc3c(=O)c12	inconclusive: 1.3 µM [activator, full curve, poor fit]	
O=c1[nH]nc(SCc2ccccc2Cl)n1-c1ccc2c(c1)OCCO2	inconclusive: 2.31 µM [activator, partial curve, poor fit]	
CSc1nc2sc3c(c2c(=O)n1CC(C)C)CC(C)(C)OC3	inactive	
Cc1ccccc1-c1cc(C(=O)O)nn1CC1CC(c2cccc([N+](=O)[O-])c2)=NO1 (centres undefined)		inconclusive: 80.2% [activator]
O=S1(=O)CCOC[C@H](CC2CCCCC2)N1Cc1cccc(F)c1	inconclusive: 0.164 µM [activator, full curve, poor fit]	
COCCNC(=O)c1cnn2c(C(F)F)cc(-c3ccccc3)nc12	active: 14.6 µM	
O=C(O)c1ccc(CN2C(=O)CSC2=S)cc1	inactive	
Cc1cc(N=Cc2c(O)ccc3ccccc23)no1	inactive	
O=C(CC1Sc2ccccc2NC1=O)NNC(=O)Nc1ccc(Cl)cc1 (centres undefined)	inconclusive: 20.6 µM [activator, partial curve, poor fit]	
CCOC(=O)c1cc(-c2cccnc2)nn1-c1ccccc1	inactive	
Cn1c(N)c(C(=O)COC(=O)c2ccc(Cl)c(S(=O)(=O)N3CCCCC3)c2)c(=O)n(C)c1=O	inactive	
Cc1nc2c(-c3ccc(F)cc3)cnn2c(N)c1-c1ccccc1	inconclusive: 29.1 µM [activator, single point]	
Cc1ccc(F)c(NC(=O)c2ccc(Cn3cc(Cl)cn3)cc2)c1	inconclusive: 20.6 µM [activator, single point]	
C=C(C)C1CC=C(CN2CC(C)OC(C)C2)CC1 (centres undefined)	inactive	
O=C(NCCc1ccccc1)C1CC(=O)N(c2ccc3c(c2)OCCO3)C1 (centres undefined)	inactive	
COc1ccc(C(C)=O)cc1CSc1nc2ccccc2c(=O)n1-c1cccc(C)c1	inconclusive: 23.1 µM [activator, partial curve, poor fit]	
Nn1c(SCC(=O)NC(=O)Nc2ccc3c(c2)OCCO3)nnc1C1CC1	inconclusive: 3.26 µM [activator, partial curve, poor fit]	
COc1cccc(CNC(=O)c2cc3c(C)nc4ccccc4c3o2)c1	inactive	
O=C(Nc1nncs1)c1cccc(S(=O)(=O)N2CCc3ccccc32)c1	inactive	
CCOc1ccc(C(=O)Nc2ccc(S(=O)(=O)N3C[C@@H]4C[C@@H](C3)c3cccc(=O)n3C4)cc2)cc1	inconclusive: 1.3 µM [activator, single point]	

Quoted at random: four records from the list
Structure (SMILES)	Potency	re-replication activation
CCOc1ccc(C(=O)Nc2ccc(S(=O)(=O)N3C[C@@H]4C[C@@H](C3)c3cccc(=O)n3C4)cc2)cc1	inconclusive: 1.3 µM [activator, single point]	
COCCNC(=O)c1cnn2c(C(F)F)cc(-c3ccccc3)nc12	active: 14.6 µM	
CCOCCCNC(=O)/C(C#N)=C/c1cc(OC)c(O)c([N+](=O)[O-])c1	inconclusive: 25.9 µM [activator, single point]	
Cc1nc2c(-c3ccc(F)cc3)cnn2c(N)c1-c1ccccc1	inconclusive: 29.1 µM [activator, single point]	

Continued:

Structure (SMILES)	Potency	re-replication activation
O=C(N/N=C/c1ccncc1)c1cc2ccccc2o1	inconclusive: 29.1 µM [activator, single point]	
Cc1nc2c(-c3ccc(Cl)cc3)c(C)[nH]n2c(=O)c1Cc1ccccc1	inconclusive: 5.17 µM [activator, single point]	
CCOC(=O)CSC1=C(C#N)C(c2ccc3c(c2)OCO3)CC(=O)N1 (centres undefined)	inconclusive: 18.4 µM [activator, single point]	
O=C(NCc1ccccc1F)c1cccc(S(=O)(=O)NCc2ccccc2)c1	inactive	
Cc1ccc(Nc2nc(N)nc(CN3CCN(c4ccccc4F)CC3)n2)cc1	inconclusive: 16.4 µM [activator, single point]	
O=C1c2cccc(Cl)c2C(=O)N1c1ccccn1	inconclusive: 29.1 µM [activator, single point]	
COCCNC(=O)CN1CCCCCC1	inactive	
O=C(Nc1ccc(S(=O)(=O)N2CCOCC2)cc1)c1cc(-c2ccccc2O)n[nH]1	inactive	
Clc1ccc(Cn2ncc3c(N4CCCCC4)ncnc32)cc1	inactive	
Cc1cc(NS(=O)(=O)c2ccc(NC(=O)CN3C(=O)NC(C)(c4ccccc4)C3=O)cc2)nc(C)n1 (centres undefined)	inactive	
CCN(Cc1ccccc1)S(=O)(=O)c1ccc(C(=O)N(CCCN(C)C)c2nc3cc4c(cc3s2)OCCO4)cc1	inconclusive: 29.1 µM [activator, single point]	
CCn1c(CNC(=O)C2CCCCC2)cc2cc(C)ccc21	inactive	
N#CCc1ccc(NC(=O)/C=C/c2ccc([N+](=O)[O-])o2)cc1	inconclusive: 2.06 µM [activator, partial curve, poor fit]	
COc1ccc(OC)c(/C=C2\SC(=S)N(Cc3cccnc3)C2=O)c1	active: 16.4 µM	
CCC1=C(OC(=O)N(CC)CC)N2C(=O)OC(=NCc3ccccc3)[C@]2(C)[C@H]2C1=CC[C@H]1C(=O)NC(=O)[C@H]12	inconclusive: 32.6 µM [activator, partial curve, poor fit]	
Cc1ccccc1NC(=O)c1ccc(CN2CCC(Cc3ccccc3)CC2)cc1	inconclusive: 25.9 µM [activator, single point]	
CC(C)Cn1c(N)c(C(=O)COC(=O)C2CC(=O)N(Cc3ccccc3Cl)C2)c(=O)n(C)c1=O (centres undefined)	inactive	
S=C(N/N=C/c1cccc2ccccc12)Nc1cccc(Cl)c1	inconclusive: 29.1 µM [activator, single point]	
COC[C@@H]1NS(=O)(=O)c2ccc(Br)cc2O[C@H]1c1ccccc1	inconclusive: 29.1 µM [activator, single point]	
Cn1cnnc1SCc1ccc(C(=O)N=Nc2c(O)n(Cc3ccc(Cl)cc3)c3ccccc23)cc1	inconclusive: 29.1 µM [activator, single point]	
CSc1ccccc1OCc1cc(C(=O)N2CCc3c(Cl)cccc3C2)no1	inactive	
CC(C)(C)c1nc(N2CCN(C(=O)c3ccco3)CC2)c2nnn(Cc3ccccc3)c2n1	inconclusive: 29.1 µM [activator, partial curve, poor fit]	
Cc1cc(-c2nn(-c3ccccc3)cc2/C=C2\SC(N)=NC2=O)ccc1OC(C)C	inconclusive: 9.2 µM [activator, partial curve]	
